Data published in patent US20090286883A1, “TREATMENT OF HEART FAILURE AND ASSOCIATED CONDITIONS BY ADMINISTRATION OF MONOAMINE OXIDASE INHIBITORS” (Universita' degli Studi di Padova (University of Padua), priority 2008, published 2009).

Test system: TAC-induced pressure overload
Test: Transverse aortic constriction (TAC) pressure overload in mice, cardiac morphology and in vivo ventricular function
Details: clorgyline 1 mg/kg/day

## C#CCN(C)CCCOc1ccc(Cl)cc1Cl [clorgyline]
TAC 3 weeks
  BW: 25.6 ± 0.6 g
TAC 6 weeks
  BW: 27.1 ± 0.4 g
